From PubChem BioAssay AID1347076 (National Center for Advancing Translational Sciences (NCATS), 2019)
Out of some 400,000 compounds screened, about 13,000 (3.2%) were called active. Inconclusive results, whose numbers are uncertain, are shown with a selection of clear calls. The call rests on the fitted dose curve; in most records, active means well fitted cell-killing curve with a large enough effect; inconclusive means small, poorly fitted or top-dose-only effect, or effect the other way; inactive means flat fitted curve, though single readings scatter. Potencies beside an inconclusive call are fits to weak or partial responses and may not hold up.

assay: qHTS assay for MDR1-selective chemotherapeutics: Primary screen using the drug-selected MDR subline cells KB-V1; conditions: KB-V1 MDR cells viability, CellTiter-Glo, 72 h; activity change, negative = cytotoxicity: at 46.1 µM (top of the series); further: nearly all actives have a fitted effect of over 60% in size
Procedure, shortened: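 Cytotoxicity toward P-gp-expressing KB-V1 cells was determined as loss of CellTiter-Glo luminescence after 72 h at 37 degrees C. Compounds were tested in quantitative HTS format across a concentration range, with curves fitted to normalized data.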
On the % scale 0 is the no-effect control and ±100 the full control effect; potency means the concentration at half of the fitted maximal effect.

Question: Which “activity change, negative = cytotoxicity” value does the source give for `Cc1[nH]n(-c2ccc([N+](=O)[O-])cc2)c(=O)c1C=NCCc1c[nH]c2ccccc12` here?
Answer: inactive: -16.7%

Question: Which “activity change, negative = cytotoxicity” value does the source give for `CC1CCN(C(=O)CSc2nc(-c3ccccc3)no2)CC1` here?
Answer: inactive: -17.5%

Question: Which “activity change, negative = cytotoxicity” value does the source give for `O=C1c2ccccc2NC(c2cccc(F)c2)N1Cc1ccco1` (centres undefined) here?
Answer: inactive: -22.5%

Question: Which Potency does the source give for `CCn1c(SCC(=O)NCc2ccccc2)nnc1C(CO)NC(=O)c1ccccc1` (centres undefined) here?
Answer: inconclusive: 16.4 µM [rising, single point]

Question: With `O=C(CC1(O)C(=O)Nc2ccccc21)c1ccc(-n2cccc2)cc1` (centres undefined) as the compound, how does the Potency read?
Answer: inconclusive: 23.1 µM [rising, single point]

Question: Which Potency does the source give for `CC(C)C[C@H](NC(=O)c1nc[nH]c1C(=O)N[C@@H](CC(C)C)C(=O)OC(C)(C)C)C(=O)OCc1ccccc1` here?
Answer: inconclusive: 20.6 µM [cytotoxic, single point]

Question: With `COc1cccc(OCCNc2cc(N3CCCCC3)ccc2[N+](=O)[O-])c1` as the compound, how does the Potency read?
Answer: inconclusive: 13 µM [cytotoxic, partial curve]

Question: For `CC(=O)Oc1ccc(-c2ccc(C(=O)OCC(=O)c3c(N)n(C)c(=O)n(C)c3=O)cc2)cc1`, which Potency is on record?
Answer: inconclusive: 20.6 µM [rising, partial curve]

Question: Which Potency does the source give for `Cc1ccc(S(=O)(=O)N2CCC(=O)N([C@H](COCc3ccc(C(F)(F)F)cc3)C(C)C)CC2)cc1` here?
Answer: inconclusive: 0.105 µM [rising, full curve, poor fit]

Question: With `CN(CC(=O)Nc1ccc(Cl)cc1)C(=O)c1cccc(S(=O)(=O)N2CCN(Cc3ccccc3)CC2)c1` as the compound, how does the Potency read?
Answer: inconclusive: 10.3 µM [cytotoxic, partial curve]

Question: For `COc1ccc(OC)c(NC(=O)CSc2nnc(-c3ccco3)n2-c2ccccc2)c1`, which Potency is on record?
Answer: inconclusive: 20.6 µM [cytotoxic, partial curve, poor fit]

Question: With `COc1ccccc1C(CNC(=O)CNC(=O)c1ccc(C)c(C)c1)N1CCCC1` (centres undefined) as the compound, how does the Potency read?
Answer: inconclusive: 9.2 µM [cytotoxic, partial curve, poor fit]

Question: With `C/C(=N/NC(=O)c1ccoc1C)c1ccc(NC(=O)C2CCCC2)cc1` as the compound, how does the Potency read?
Answer: inconclusive: 18.4 µM [cytotoxic, single point]

Question: With `COc1cc2c(cc1OC)/C(=C/c1ccc(Br)cc1)C(=O)OC2` as the compound, how does the Potency read?
Answer: inconclusive: 18.4 µM [cytotoxic, partial curve, poor fit]

Question: Which “activity change, negative = cytotoxicity” value does the source give for `CCS(=O)(=O)N1CCN(S(=O)(=O)c2ccccc2[N+](=O)[O-])CC1` here?
Answer: inactive: 4.87%

Question: Which Potency does the source give for `COC(=O)c1ccccc1NC(=O)c1cncc(Br)c1` here?
Answer: inconclusive: 20.6 µM [cytotoxic, single point]

Question: With `CC1CCc2nc(/C(C#N)=C/c3ccncc3)sc2C1` (centres undefined) as the compound, how does the Potency read?
Answer: inconclusive: 18.4 µM [cytotoxic, single point]

Question: Which Potency does the source give for `Cc1cc(Br)c2c(c1)[C@](O)(c1cn(C)c3ccccc13)C(=O)N2C` here?
Answer: inconclusive: 11.6 µM [cytotoxic, partial curve, poor fit]

Question: For `COc1ccc(/C=N/NC(=O)c2cc3c(ccc4ccccc43)o2)c(OC)c1`, which “activity change, negative = cytotoxicity” value is on record?
Answer: inactive: -14.3%

Question: For `CSCCC(NC(=O)c1ccco1)C(=O)N(C)CC(=O)Nc1c(Cl)cccc1Cl` (centres undefined), which Potency is on record?
Answer: inconclusive: 20.6 µM [cytotoxic, partial curve, poor fit]

Question: With `CCNc1nc(NCC)n2c(SC(C(=O)Nc3cc(Cl)cc(Cl)c3)c3ccccc3)nnc2n1` (centres undefined) as the compound, how does the Potency read?
Answer: inconclusive: 23.1 µM [cytotoxic, single point]

Question: Which Potency does the source give for `Cc1cc(C)c2cc(CNC3CCCC3)c(Cl)nc2c1` here?
Answer: inconclusive: 0.206 µM [cytotoxic, full curve, poor fit]

Question: For `O=C(CN1C(=O)NC2(CCCCCC2)C1=O)c1ccc(OC(F)F)cc1OC(F)F`, which Potency is on record?
Answer: inconclusive: 8.2 µM [cytotoxic, partial curve]

Question: With `CC(=O)N1CCN(c2ccc(NC(=O)COc3ccc(Cl)cc3Cl)cc2)CC1` as the compound, how does the Potency read?
Answer: inconclusive: 25.9 µM [cytotoxic, partial curve, poor fit]

Question: For `C=CC[C@H]1CC(C)=C[C@H](CC=C)N1C(=O)c1cc(COc2ccccc2SC)on1`, which Potency is on record?
Answer: inconclusive: 11.6 µM [cytotoxic, partial curve]

Question: Which Potency does the source give for `NNc1nc2cccnc2n(CCNc2ncc(C(F)(F)F)cc2Cl)c1=O` here?
Answer: inconclusive: 23.1 µM [cytotoxic, single point]

Question: With `CCN(Cc1cc2cc(C)ccc2[nH]c1=O)C(=O)c1cccc(OC)c1` as the compound, how does the Potency read?
Answer: active: 9.2 µM

Question: For `O=C(c1ccc(COc2c(F)c(F)cc(F)c2F)o1)N1CCN(c2ccc(Cl)cc2)CC1`, which Potency is on record?
Answer: inconclusive: 32.6 µM [cytotoxic, single point]

Question: For `COc1ccc(C(c2nnnn2C2CCCC2)N2CCc3ccccc3C2)cc1OC` (centres undefined), which Potency is on record?
Answer: inconclusive: 7.31 µM [cytotoxic, partial curve]

Question: Which Potency does the source give for `Cc1ccc(C)c(S(=O)(=O)N2CCN(C(C)C(=O)Nc3ccccc3-c3ccccc3)CC2)c1` (centres undefined) here?
Answer: inconclusive: 18.4 µM [cytotoxic, partial curve, poor fit]

Question: For `O=C(CN1CCN(C(=O)c2ccc(-c3nc4ccccc4s3)o2)CC1)Nc1ccc(F)cc1`, which Potency is on record?
Answer: inconclusive: 29.1 µM [cytotoxic, partial curve, poor fit]

Question: Which Potency does the source give for `CN(Cc1ccc(Cl)cc1Cl)C(=O)C1CSC2(C)CCC(=O)N12` (centres undefined) here?
Answer: inconclusive: 16.4 µM [cytotoxic, partial curve, poor fit]

Question: Which Potency does the source give for `CC(=O)C(C)n1c(CN2CCN(C(=O)c3ccco3)CC2)nc2c1c(=O)n(C)c(=O)n2C` (centres undefined) here?
Answer: inconclusive: 2.59 µM [rising, full curve]

Question: Which Potency does the source give for `CC(NC(=O)CCCc1c[nH]c2ccccc12)c1ccc(F)cc1` (centres undefined) here?
Answer: inconclusive: 23.1 µM [cytotoxic, single point]

Question: Which “activity change, negative = cytotoxicity” value does the source give for `Clc1ccccc1-c1nnc2sc(-c3ccc(Br)o3)nn12` here?
Answer: inactive: 0%

Question: With `COCCn1c(SCc2csc(-c3ccccc3)n2)nc2ccccc21` as the compound, how does the Potency read?
Answer: active: 8.2 µM

Question: Which Potency does the source give for `Cc1ccccc1C(=O)NC1CCN(Cc2nnnn2Cc2ccc(F)cc2)CC1` here?
Answer: active: 20.6 µM

Question: With `CCn1ncc(/C=N/NC(=O)c2cc(Cl)ccc2OC)c1C` as the compound, how does the Potency read?
Answer: inconclusive: 13 µM [cytotoxic, partial curve, poor fit]

Question: With `COc1ccc([C@H]2CC(=O)C=C(c3ccc4c(c3)OCO4)C2)cc1` as the compound, how does the activity change, negative = cytotoxicity read?
Answer: inconclusive: 30.2%
